The list shows only some results of the screen, not a fair sample: it is rich in T/C values a quarter to a half above the control, in often repeated tests (any T/C) and in doses without a T/C. Other doses and runs of a compound stand elsewhere. T/C: endpoint of the treated group in % of that of the vehicle group. Some entries give survivors of the animals treated and no T/C: the source holds a T/C of zero for them, seemingly a mark for toxic or unscored doses. Some survivor counts are full or nearly so, which does not show that the dose was tolerated: the source hardly ever lists a survival T/C far under the control, and the zero likely stands for such cases as well. Survivors were counted at the toxicity check, usually on the fifth day, unless a day is given; later deaths do not show. Schedule codes are those of the source, taken here to give the interval after Q, in days (D) or hours (H), and the number of doses after X. Some schedules carry Z or #; the key to these is not given. Some structures stand for samples that the source files as different forms (salt, stereo form or complex); doses refer to the form tested. Where survival is the endpoint, the PubChem record calls one and a half times the control and up active, and a quarter to a half above the control has no call in these data; cut-offs in other NCI protocols can differ. Some T/C values carry the count of animals alive at the toxicity check (mostly the fifth day); where none is given, no animal had died by that day. Some entries were tested several times; the results are listed from low to high.
System: L1210 leukemia ip in BDF1 mice, survival T/C
Experiment: NCI In Vivo Anticancer Drug Screen. Data for tumor model L1210 Leukemia (intraperitoneal) in B6D2F1 (BDF1) mice
Conditions: T/C endpoint: mean survival time, higher T/C = longer survival
[1] = dose: 200.0 mg/kg/injection, schedule: Q04DX003 (ip), vehicle: Klucel (hydroxypropylcellulose) (HPC)
[2] = dose: 400.0 mg/kg/injection, schedule: Q01DX001 (ip), vehicle: other
[3] = dose: 200.0 mg/kg/injection, schedule: Q01DX009 (ip), vehicle: Klucel (hydroxypropylcellulose) (HPC)
[4] = dose: 400.0 mg/kg/injection, schedule: Q01DX009 (ip), vehicle: Klucel (hydroxypropylcellulose) (HPC)
[5] = dose: 400.0 mg/kg/injection, schedule: Q01DX009 (ip), vehicle: saline
[6] = dose: 120.0 mg/kg/injection, schedule: Q01DX Z (ip), vehicle: carboxymethylcellulose (CMC)
[7] = dose: 200.0 mg/kg/injection, schedule: Q01DX001 (ip), vehicle: saline
[8] = dose: 400.0 mg/kg/injection, schedule: Q01DX001 (ip), vehicle: saline
[9] = dose: 50.0 mg/kg/injection, schedule: Q04DX003 (ip), vehicle: Klucel (hydroxypropylcellulose) (HPC)
[10] = dose: 100.0 mg/kg/injection, schedule: Q04DX003 (ip), vehicle: Klucel (hydroxypropylcellulose) (HPC)
[11] = dose: 400.0 mg/kg/injection, schedule: Q04DX003 (ip), vehicle: Klucel (hydroxypropylcellulose) (HPC)
[12] = dose: 100.0 mg/kg/injection, schedule: Q01DX009 (ip), vehicle: saline
[13] = dose: 500.0 mg/kg/injection, schedule: Q01DX001 (ip), vehicle: other

C=CCOc1cc(C)cc(C)c1C
T/C [1]: 126 % of control

C/C=C(/C)C(=O)O[C@H]1CCN2CC=C(COC(=O)[C@@](O)([C@H](C)OC)C(C)(C)O)[C@H]12
survivor count (dose: 100.0 mg/kg/injection, schedule: Q01DX001 (ip), vehicle: other): 2 of 6 | survivor count (dose: 200.0 mg/kg/injection, schedule: Q01DX001 (ip), vehicle: other): 0 of 6 | survivor count [2]: 0 of 6

COc1cc2c(cc1OC)C13CCN4CC5=CCOC6CC(=O)N2C1C6C5CC43 (configuration not stated)
survivor count (dose: 75.0 mg/kg/injection, schedule: Q01DX001 (ip), vehicle: other): 3 of 6 | survivor count (dose: 150.0 mg/kg/injection, schedule: Q01DX001 (ip), vehicle: other): 0 of 6 | survivor count (dose: 200.0 mg/kg/injection, schedule: Q01DX015 (ip), vehicle: saline): 0 of 6 | survivor count (dose: 300.0 mg/kg/injection, schedule: Q01DX001 (ip), vehicle: other): 0 of 6

CN1CCC2(CC1)C(=O)N(c1ccccc1)C(=O)C2c1ccccc1 (configuration not stated)
survivor count (dose: 400.0 mg/kg/injection, schedule: Q01DX001 (ip), vehicle: Klucel (hydroxypropylcellulose) (HPC)): 2 of 6

O=[N+]([O-])c1cccc2nonc12
survivor count (dose: 50.0 mg/kg/injection, schedule: Q04DX002 (ip), vehicle: Klucel (hydroxypropylcellulose) (HPC)): 1 of 3 | survivor count (dose: 100.0 mg/kg/injection, schedule: Q04DX002 (ip), vehicle: Klucel (hydroxypropylcellulose) (HPC)): 0 of 3 | survivor count (dose: 200.0 mg/kg/injection, schedule: Q04DX002 (ip), vehicle: Klucel (hydroxypropylcellulose) (HPC)): 0 of 3

CCN(CC)CCN(C(=S)Nc1ccccc1)c1ccccc1
survivor count (dose: 100.0 mg/kg/injection, schedule: Q01DX009 (ip), vehicle: Klucel (hydroxypropylcellulose) (HPC)): 3 of 6 | survivor count [3]: 0 of 6 | survivor count [4]: 0 of 6

CSc1ccc(NC(=O)Nc2ccc(Cl)cc2[N+](=O)[O-])cc1
survivor count [4]: 1 of 6

C=CCNP(=O)(OCC)OCC
survivor count (dose: 50.0 mg/kg/injection, schedule: Q01DX009 (ip), vehicle: saline): 6 of 6 | survivor count [5]: 0 of 6 | survivor count (dose: 400.0 mg/kg/injection, schedule: Q04DX003 (ip), vehicle: saline): 1 of 6

S=C(Nc1ccc(C2=NCCN2)cc1)c1ccc(C(=S)Nc2ccc(C3=NCCN3)cc2)cc1
T/C (dose: 8.0 mg/kg/injection, schedule: Q01DX Z (ip), vehicle: saline): 130 % of control | T/C (dose: 16.0 mg/kg/injection, schedule: Q01DX Z (ip), vehicle: saline): 136 % of control | T/C [6]: 137 % of control

C1CCC2(CC1)CN2
survivor count [7]: 1 of 6 | survivor count [8]: 0 of 6

Oc1ccccc1C=NCC[N-]CCN=Cc1ccccc1O.[Cu+]
survivor count (dose: 12.5 mg/kg/injection, schedule: Q04DX003 (ip), vehicle: Klucel (hydroxypropylcellulose) (HPC)): 3 of 6 | survivor count (dose: 25.0 mg/kg/injection, schedule: Q04DX003 (ip), vehicle: Klucel (hydroxypropylcellulose) (HPC)): 0 of 6 | survivor count [9]: 0 of 6 | survivor count [10]: 0 of 6 | survivor count [1]: 0 of 6 | survivor count [11]: 0 of 6

c1cn[nH]c1
survivor count (dose: 400.0 mg/kg/injection, schedule: Q01DX001 (ip), vehicle: carboxymethylcellulose (CMC)): 2 of 4

C=CCOC(OCC=C)C(OCC=C)OCC=C
survivor count (dose: 100.0 mg/kg/injection, schedule: Q01DX009 (ip), vehicle: saline with Tween-80): 6 of 6

O=[N+]([O-])c1c(Cl)ccc2nsnc12
survivor count [9]: 6 of 6 | survivor count [10]: 3 of 6 | survivor count [1]: 2 of 6 | survivor count [11]: 0 of 6

CCCCCN(CCCCC)CCCNc1c2c(nc3ccc(Cl)cc13)CCCC2
survivor count (dose: 100.0 mg/kg/injection, schedule: Q01DX001 (ip), vehicle: saline): 1 of 4 | survivor count [7]: 0 of 4 | survivor count [8]: 0 of 4

Cc1ccc(S(=O)(=O)SC(Cl)(Cl)Cl)cc1
survivor count [12]: 0 of 3 | survivor count (dose: 200.0 mg/kg/injection, schedule: Q01DX009 (ip), vehicle: saline): 0 of 3

CCCSc1nc(N)nc2nc[nH]c12
T/C (dose: 6.6 mg/kg/injection, schedule: Q01DX Z (ip), vehicle: carboxymethylcellulose (CMC)): 136 % of control | T/C (dose: 6.7 mg/kg/injection, schedule: Q01DX Z (ip), vehicle: carboxymethylcellulose (CMC)): 125 % of control | T/C (dose: 10.0 mg/kg/injection, schedule: Q01DX Z (ip), vehicle: carboxymethylcellulose (CMC)): 133, 136, 137 [5 of 6 alive], 147, 172 % of control | T/C (dose: 17.0 mg/kg/injection, schedule: Q01DX Z (ip), vehicle: carboxymethylcellulose (CMC)): 139 % of control | T/C (dose: 19.0 mg/kg/injection, schedule: Q01DX009 (ip), vehicle: Klucel (hydroxypropylcellulose) (HPC)): 133 % of control | T/C (dose: 26.0 mg/kg/injection, schedule: Q01DX Z (ip), vehicle: carboxymethylcellulose (CMC)): 138 % of control | T/C (dose: 45.0 mg/kg/injection, schedule: Q01DX009 (ip), vehicle: Klucel (hydroxypropylcellulose) (HPC)): 137 % of control | T/C (dose: 60.0 mg/kg/injection, schedule: Q01DX Z (ip), vehicle: carboxymethylcellulose (CMC)): 135 % of control | survivor count (dose: 62.0 mg/kg/injection, schedule: Q01DX001 (ip), vehicle: other): 10 of 10 | T/C (dose: 65.0 mg/kg/injection, schedule: Q01DX009 (ip), vehicle: Klucel (hydroxypropylcellulose) (HPC)): 139 % of control | T/C (dose: 80.0 mg/kg/injection, schedule: Q01DX Z (ip), vehicle: carboxymethylcellulose (CMC)): 130, 133, 147, 161 % of control | T/C [12]: 142 % of control | T/C [6]: 138 % of control | T/C (dose: 132.0 mg/kg/injection, schedule: Q01DX009 (ip), vehicle: Klucel (hydroxypropylcellulose) (HPC)): 148 % of control | survivor count (dose: 180.0 mg/kg/injection, schedule: Q01DX Z (ip), vehicle: carboxymethylcellulose (CMC)): 3 of 6 | T/C [3]: 137 % of control | T/C (dose: 250.0 mg/kg/injection, schedule: Q## X001 (ip), vehicle: other): 125 % of control | survivor count (dose: 270.0 mg/kg/injection, schedule: Q01DX Z (ip), vehicle: carboxymethylcellulose (CMC)): 1 of 6 | T/C (dose: 300.0 mg/kg/injection, schedule: Q01DX009 (ip), vehicle: Klucel (hydroxypropylcellulose) (HPC)): 143 % of control | survivor count (dose: 320.0 mg/kg/injection, schedule: Q01DX Z (ip), vehicle: carboxymethylcellulose (CMC)): 1 of 6 | T/C [2]: 125 % of control [7 of 10 alive] | survivor count [5]: 3 of 6 | T/C [13]: 122 [9 of 10 alive], 132 [7 of 10 alive], 141 % of control | survivor count [13]: 4 of 10 | survivor count (dose: 500.0 mg/kg/injection, schedule: Q## X001 (ip), vehicle: other): 10 of 10 | survivor count (dose: 600.0 mg/kg/injection, schedule: Q01DX001 (ip), vehicle: other): 4 of 10 | survivor count (dose: 600.0 mg/kg/injection, schedule: Q## X001 (ip), vehicle: other): 5 of 10 | survivor count (dose: 640.0 mg/kg/injection, schedule: Q01DX Z (ip), vehicle: carboxymethylcellulose (CMC)): 0 of 6

CCC(=O)Nc1cccc(Cl)c1
survivor count (dose: 400.0 mg/kg/injection, schedule: Q01DX009 (ip), vehicle: saline with Tween-80): 2 of 6

COc1ccc(OC)c(/C=C/c2cccn[n+]2C)c1
survivor count (dose: 200.0 mg/kg/injection, schedule: Q01DX009 (ip), vehicle: saline with Tween-80): 3 of 3

C=CCNC(=S)Nc1ccc(N(C)C)cc1
survivor count (dose: 400.0 mg/kg/injection, schedule: Q04DX003 (ip), vehicle: saline with Tween-80): 6 of 6

— PubChem BioAssay AID248 (DTP/NCI, 2004)
